Reference: PubChem BioAssay AID504793 (Drosophila RNAi Screening Center, 2011)

Screen: 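Genes required for cells to halt at G2/M after double-strand DNA breaks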 (primary screen)
Cells: Drosophila S2R+ cells
Reagent: long dsRNA against Drosophila genes, about 0.25 µg dsRNA per well
Time to read-out: 4 days of dsRNA, then 4 hours of drug before read-out
Treatment: doxorubicin 0.5 µM for 4 hours to cause double-strand breaks, in cells also given a low, harmless dose of dsRNA against nbs to sensitise the assay
Detection: 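Per-well count of mitotic cells stained for phospho-histone H3 after doxorubicin exposure, used as mitotic index; counts are raw and not normalised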
Scale: mitotic cells: higher = more cells in mitosis, weaker G2 arrest
Rule for the call: 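a call needs confirmation in secondary tests, with other dsRNAs and a check of mitotic timing without damage, not just a high primary count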
Meaning of the calls: active = confirmed in follow-up tests; inactive = not confirmed
The screen tested about 23,000 reagents; this is an unselected part of those that have a named target and a result. Over the whole deposit, 62 (0.27%) are marked active. 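Calls come from follow-up tests whose scores are not deposited, so confirmed genes may have low counts here; counts are not normalised per plate.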 Raw values are not corrected between plates. Names joined by + are all predicted targets of the reagent.

gene knocked down,DRSC id,"mitotic cells, replicate 1","mitotic cells, replicate 2",Call
Sb,DRSC16851,5,,inactive
Sb,DRSC29250,4,,inactive
dmrt11E,DRSC19715,24,,inactive
dmrt11E,DRSC23784,9,,inactive
IntS1,DRSC04343,8,,inactive
IntS1,DRSC27942,8,,inactive
Crg-1,DRSC22882,1,,inactive
Crg-1,DRSC29136,9,,inactive
Ag5r,DRSC19327,8,,inactive
Ag5r,DRSC29999,3,,inactive
Snr1,DRSC12369,13,,inactive
CG31676,DRSC02387,7,,inactive
CG11666,DRSC22379,3,,inactive
OtopLa,DRSC18133,7,,inactive
OtopLa,DRSC23226,6,,inactive
OtopLa,DRSC29861,8,,inactive
CG15269,DRSC01942,8,,inactive
CG15269,DRSC24737,10,,inactive
Hug,DRSC16969,9,,inactive
Hug,DRSC29749,7,,inactive
CG15353,DRSC00383,2,,inactive
CG15353,DRSC24727,2,,inactive
CG32633,DRSC18987,4,,inactive
dpp,DRSC00118,6,,inactive
dpp,DRSC00121,2,,inactive
dpp,DRSC00813,3,,inactive
dpp,DRSC26853,7,,inactive
Mitofilin,DRSC16742,9,,inactive
Eip63F-1,DRSC08659,2,,inactive
Eip63F-1,DRSC25229,7,,inactive
Egm,DRSC07319,4,,inactive
Egm,DRSC22860,9,,inactive
CG13297,DRSC09971,5,,inactive
b6,DRSC18740,8,,inactive
b6,DRSC24064,4,,inactive
CG3698,DRSC11749,7,,inactive
CG3698,DRSC26417,2,,inactive
ena,DRSC05779,7,,inactive
ena,DRSC07610,5,,inactive
ena,DRSC25393,8,,inactive
Fbp2,DRSC03327,5,,inactive
Fbp2,DRSC29036,4,,inactive
CG8245,DRSC04901,15,,inactive
CG17544,DRSC02624,5,,inactive
CG17544,DRSC25562,3,,inactive
CG5246,DRSC15751,8,,inactive
CG5246,DRSC30005,11,,inactive
CG9702,DRSC16540,17,,inactive
c(3)G,DRSC15245,6,,inactive
c(3)G,DRSC26062,5,,inactive
CG31473,DRSC15443,,,inactive
CG31473,DRSC29111,3,,inactive
slv,DRSC07685,2,,inactive
Rbp6,DRSC10072,2,,inactive
Rbp6,DRSC10073,4,,inactive
pre-mod(mdg4)-W + pre-mod(mdg4)-Y + mod(mdg4) + 3 more,DRSC16328,7,,inactive
rst,DRSC17243,12,,inactive
rst,DRSC18828,16,,inactive
rst,DRSC25716,10,,inactive
kl-3 (retired record),DRSC20730,4,,inactive
kl-3 (retired record),DRSC20891,8,,inactive
kl-3 (retired record),DRSC20934,17,,inactive
wap,DRSC20626,6,,inactive
Hr38,DRSC23230,10,,inactive
Hr38,DRSC28077,4,,inactive
Bap60,DRSC19337,12,,inactive
br,DRSC17691,4,,inactive
br,DRSC17789,4,,inactive
br,DRSC25765,9,,inactive
Cox17,DRSC20145,14,,inactive
dnc,DRSC17759,6,,inactive
dnc,DRSC17911,14,,inactive
dnc,DRSC18764,13,,inactive
CG13946,DRSC00364,1,,inactive
Sytbeta,DRSC10009,3,,inactive
Sytbeta,DRSC10351,6,,inactive
stretch (retired record),DRSC14512,4,,inactive
stretch (retired record),DRSC14541,13,,inactive
stretch (retired record),DRSC14542,9,,inactive
stretch (retired record),DRSC14543,5,,inactive
stretch (retired record),DRSC23038,5,,inactive
stretch (retired record),DRSC28624,4,,inactive
stretch (retired record),DRSC29228,4,,inactive
stretch (retired record),DRSC36547,4,,inactive
CG4645,DRSC19907,6,,inactive
CG4645,DRSC24802,8,,inactive
CG13807,DRSC08342,10,,inactive
CG13807,DRSC28816,5,,inactive
wam,DRSC15171,13,,inactive
M1BP,DRSC16566,25,,active
M1BP,DRSC29073,10,,inactive
CG7329,DRSC03046,2,,inactive
CG7329,DRSC26137,2,,inactive
sofe,DRSC19751,10,,inactive
CG4872,DRSC19921,3,,inactive
MESR6,DRSC10720,1,,inactive
MESR6,DRSC28344,9,,inactive
CG15186,DRSC12566,8,,inactive
CG15186,DRSC26271,5,,inactive
Obp22a,DRSC00088,6,,inactive
CG34417,DRSC18332,5,,inactive
CG34417,DRSC18333,2,,inactive
CG34417,DRSC28478,8,,inactive
CG6891,DRSC20016,10,,inactive
CG6891,DRSC25854,5,,inactive
CG30383,DRSC05062,1,,inactive
CG8788,DRSC07267,6,,inactive
Sec22,DRSC18538,4,,inactive
Sec22,DRSC29297,4,,inactive
CG14258,DRSC14753,7,,inactive
CG8675,DRSC20117,3,,inactive
CG8675,DRSC27658,13,,inactive
CG12963,DRSC06265,3,,inactive
CG17734,DRSC15256,5,13,inactive
CG17734,DRSC29210,7,,inactive
TBPH,DRSC04660,4,,inactive
TBPH,DRSC28032,7,,inactive
CG9646,DRSC07342,8,,inactive
gcm2,DRSC03538,5,2,inactive
gcm2,DRSC29823,7,,inactive
fne,DRSC20332,11,,inactive
fne,DRSC25027,3,,inactive
fne,DRSC25129,7,,inactive
CG14837,DRSC10207,5,,inactive
Stt3A,DRSC20514,4,,inactive
Stt3A,DRSC24884,5,,inactive
CG15546,DRSC15084,23,,inactive
CG15546,DRSC22831,24,,inactive
CG15546,DRSC28899,6,,inactive
psh,DRSC19990,11,,inactive
psh,DRSC28534,5,,inactive
CG13137,DRSC02234,5,,inactive
CG4653,DRSC19909,7,,inactive
CG4653,DRSC22857,10,,inactive
CG4653,DRSC24329,6,,inactive
CG18766,DRSC15936,8,,inactive
CG18766,DRSC25739,6,,inactive
Nup107,DRSC01999,3,,inactive
CG10184,DRSC14204,8,,inactive
fs(1)Yb,DRSC18777,14,,inactive

A portion taken from the entries so far, as a working copy:
gene knocked down,DRSC id,"mitotic cells, replicate 1","mitotic cells, replicate 2",Call
CG4645,DRSC19907,6,,inactive
CG4645,DRSC24802,8,,inactive
CG13807,DRSC08342,10,,inactive
CG13807,DRSC28816,5,,inactive
wam,DRSC15171,13,,inactive
M1BP,DRSC16566,25,,active
M1BP,DRSC29073,10,,inactive
CG7329,DRSC03046,2,,inactive
